Assay results as given in PubChem BioAssay AID1347076 (National Center for Advancing Translational Sciences (NCATS), 2019).
Out of some 400,000 compounds screened, about 13,000 (3.2%) were called active. This list was built around the results that the source calls inconclusive (neither active nor inactive); the mix of calls is not that of the screen. The call rests on the fitted dose curve; in most records, active means well fitted cell-killing curve with a large enough effect; inconclusive means small, poorly fitted or top-dose-only effect, or effect the other way; inactive means flat fitted curve, though single readings scatter. Potencies of inconclusive entries are doubtful fits and often do not repeat.

Assay: qHTS assay for MDR1-selective chemotherapeutics: Primary screen using the drug-selected MDR subline cells KB-V1; further: nearly all actives have a fitted effect of over 60% in size
Details: KB-V1 MDR cells viability, CellTiter-Glo, 72 h; activity change, negative = cytotoxicity: at 46.1 µM (top of the series)
Summary of the method: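 Compound-treated KB-V1 multidrug-resistant cells, 72 h, 37 degrees C; viability by CellTiter-Glo. Fitted qHTS curves give the values.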
On the % scale 0 is the no-effect control and ±100 the full control effect; potency means the concentration at half of the fitted maximal effect.

SMILES	activity change, negative = cytotoxicity	Potency
CCN(CC)C(=O)C1=C(C)N(Cc2ccc(OC)cc2)C(=O)C(CC(=O)NCC2CCCCC2)C1 (configuration not stated)	inactive: -3.84%	–
Cc1cc(C)cc(NC(=O)CSc2ccc(-c3ccccn3)nn2)c1	–	inconclusive: 4.11 µM [cytotoxic, full curve]
O=C(Nc1c(C(=O)Nc2ccccc2)cnn1-c1ccccc1)c1ccco1	–	inconclusive: 7.31 µM [cytotoxic, partial curve]
CC(C)CC(OC(=O)c1nsc(Cl)c1Cl)C(=O)NCC1CCCO1 (configuration not stated)	inactive: 17.3%	–
CN(C(=O)Nc1cn(C)c(=O)c2ccccc12)c1ccccc1	–	inconclusive: 2.06 µM [cytotoxic, full curve, poor fit]
COc1cncc(-c2cnc3sc(NCCc4ccccn4)nn23)c1	–	inconclusive: 16.4 µM [cytotoxic, partial curve]
Cc1ccccc1C(=O)N1CCN(c2ccc([N+](=O)[O-])c(NCc3cccnc3)c2)CC1	–	active: 4.11 µM
CN1CCc2nc(SCC(=O)Nc3ccc(OC(F)(F)F)cc3)c(C#N)c(-c3cccs3)c2C1	inactive: -6.03%	–
Cc1c(NC(=O)c2cc3nc(-c4ccc(Br)cc4)cc(C(F)(F)F)n3n2)c(=O)n(-c2ccccc2)n1C	–	inconclusive: 29.1 µM [cytotoxic, single point]
OC(c1ccc(Cl)c(F)c1)c1ncc(-c2cccc(C(F)(F)F)c2)[nH]1 (configuration not stated)	inactive: 0.653%	–
O=C(C[N+]12CN3CN(CN(C3)C1)C2)c1ccc(-c2ccccc2)cc1	inactive: -15.7%	–
O=C(O)/C=C/c1ccc2c(c1)S(=O)(=O)N(C1CCCC1)[C@H]2CC(=O)O	inactive: -7.23%	–
CCOC(=O)c1c(CSC(=N)N)n(-c2ccc(C)cc2)c2cc(Br)c(OC(C)=O)cc12	inactive: 0.192%	–
O=C(/C=C/c1ccc(Cl)cc1)NC(=S)Nc1ccccc1C(=O)O	inactive: 5.58%	–
O=C(CSC1=Nc2ccccc2N=C(c2ccc(F)cc2)C1)Nc1cc(F)ccc1F	inconclusive: -18.6%	–
CCOC(=O)N1CCN(S(=O)(=O)c2ccc(OC)cc2)CC1	inactive: -6.07%	–
Cc1cc(Nc2ccc([N+](=O)[O-])cc2)nc2ccccc12	inactive: 8.72%	–
COc1ccc(CNC(=O)[C@H](C)NC(=O)C2CC(=O)N(c3ccc(OC)cc3)C2)cc1 (some centres not stated)	–	inconclusive: 14.6 µM [rising, single point]
COc1ccc(OC)c(-c2cc(C3CCN(c4cc(Cl)nc(N)n4)CC3)[nH]n2)c1	–	active: 3.26 µM
CN(Cc1cccs1)c1nc(-c2cccnc2)nc2ccccc12	–	inconclusive: 9.2 µM [cytotoxic, partial curve, poor fit]
N/C(Cc1cccc2ccccc12)=N\OC(=O)COc1ccccc1	–	inconclusive: 20.6 µM [cytotoxic, single point]
CCN(CC(=O)Nc1ccccc1C(F)(F)F)C(=O)CN1C(=O)NC(C)(c2ccc3ccccc3c2)C1=O (configuration not stated)	inconclusive: 5.08%	–
Cc1ccc(S(=O)(=O)N2CCN(C(=O)COC(=O)c3ncc(Cl)c(Cl)c3Cl)CC2)c(C)c1	–	inconclusive: 0.651 µM [cytotoxic, full curve, poor fit]
Nc1c(Br)cc2c([nH]c(=O)c3ccccc32)c1Br	inactive: -17.3%	–

Two entries drawn at random from the list so far:
SMILES	activity change, negative = cytotoxicity	Potency
Nc1c(Br)cc2c([nH]c(=O)c3ccccc32)c1Br	inactive: -17.3%	–
CCN(CC(=O)Nc1ccccc1C(F)(F)F)C(=O)CN1C(=O)NC(C)(c2ccc3ccccc3c2)C1=O (configuration not stated)	inconclusive: 5.08%	–

Going on with the list:

SMILES	activity change, negative = cytotoxicity	Potency
COc1cccc(-c2cc(C(F)(F)F)n3nc(C(=O)Nc4c(C)n(C)n(-c5ccccc5)c4=O)cc3n2)c1	inactive: -20.9%	–
Cc1ccc(C2=NCCn3nc4cc(C(F)(F)F)ccc4c32)cc1	–	inconclusive: 18.4 µM [rising, single point]
Cc1cccc(C)c1NC(=O)CNC(=O)c1ccc(S(=O)(=O)NCc2ccco2)cc1	–	inconclusive: 29.1 µM [rising, partial curve, poor fit]
C=C1C(=O)C2=CC1CCC(=O)C1(C)CCC(OC(C)=O)C(C)(C)C1CC2O (configuration not stated)	–	active: 6.51 µM
C=CCNc1oc(/C=C/c2ccccc2)nc1C#N	–	active: 18.4 µM
CCOc1cc(C(=O)NCc2ccc3c(c2)CCN3C(=O)CC)cc(OCC)c1OCC	inactive: -1.8%	–
C=C(C)CNC(=S)NNC(=O)CCn1c2cc(Cl)ccc2c2ccc(Cl)cc21	–	inconclusive: 29.1 µM [cytotoxic, single point]
COc1ccc(Br)cc1CN(C)CC(=O)Nc1cc([N+](=O)[O-])ccc1OC	–	inconclusive: 23.1 µM [cytotoxic, partial curve]
Nc1ccc(C#Cc2ccc3c(=O)c4ccccc4oc3c2)cc1	–	inconclusive: 29.1 µM [cytotoxic, single point]
O=C(NCc1ccc(F)cc1)C1CCN(C(=O)c2cnn(-c3ccccc3)c2-n2cccc2)CC1	inactive: -1.42%	–
O=C(Nc1ccccc1C(=O)O)c1cccc(S(=O)(=O)N2CCCC2)c1	inactive: 12.1%	–
Cc1ccc(-c2nc(NC(=O)c3cc(C(C)(C)C)nn3C)sc2C)cc1Cl	–	inconclusive: 23.1 µM [cytotoxic, partial curve, poor fit]
COCCNC(=O)CN1C(=O)COc2ccc(Cl)cc21	–	inconclusive: 29.1 µM [rising, single point]
COc1ccc(OCC(O)CNC(=O)c2ccc(Br)cc2)cc1 (configuration not stated)	–	active: 4.11 µM
CCSc1nnc(NC(=O)C(C)Sc2nc3ccccc3[nH]2)s1 (configuration not stated)	–	inconclusive: 16.4 µM [cytotoxic, partial curve, poor fit]
CCCCN(C)CCCNC(=O)C1(O)c2ccccc2NC(=O)N1c1ccc(Cl)cc1 (configuration not stated)	inactive: 8.2%	–
O=C(c1ccc(S(=O)(=O)N2CCCCCC2)cc1)N1CCN(c2ccccc2F)CC1	–	inconclusive: 1.64 µM [cytotoxic, full curve, poor fit]
C[C@H](CO)N1C[C@H](C)[C@H](CN(C)S(=O)(=O)c2cccs2)Oc2ncc(-c3cc4ccccc4o3)cc2C1=O	inactive: 5.05%	–
O=C(CC(=O)Nc1ccccc1C(F)(F)F)Nc1ccccc1C(F)(F)F	–	inconclusive: 29.1 µM [cytotoxic, single point]
Cc1ccc(-c2cc(-c3ccc(C)o3)nc(N)c2C#N)cc1	inactive: 0%	–
O=S(=O)(/C=C/c1ccccc1)Oc1ccccc1	inactive: 11.8%	–
CCc1cccc(NC(=O)Cn2c(=O)n(CC3CCC(C(=O)NCCc4ccccc4)CC3)c(=O)c3ccccc32)c1 (configuration not stated)	inactive: -20.1%	–
CCCCNC(=O)Nc1nnc(-c2ccccc2)o1	inactive: -29.2%	–
